{"sequences": {"note": "The chains behind the UniProt entries cited, without tags or fusion partners. Where a name states a change or a piece, a line headed by the entry shows the natural chain unless it says otherwise.", "UniProt P11229": "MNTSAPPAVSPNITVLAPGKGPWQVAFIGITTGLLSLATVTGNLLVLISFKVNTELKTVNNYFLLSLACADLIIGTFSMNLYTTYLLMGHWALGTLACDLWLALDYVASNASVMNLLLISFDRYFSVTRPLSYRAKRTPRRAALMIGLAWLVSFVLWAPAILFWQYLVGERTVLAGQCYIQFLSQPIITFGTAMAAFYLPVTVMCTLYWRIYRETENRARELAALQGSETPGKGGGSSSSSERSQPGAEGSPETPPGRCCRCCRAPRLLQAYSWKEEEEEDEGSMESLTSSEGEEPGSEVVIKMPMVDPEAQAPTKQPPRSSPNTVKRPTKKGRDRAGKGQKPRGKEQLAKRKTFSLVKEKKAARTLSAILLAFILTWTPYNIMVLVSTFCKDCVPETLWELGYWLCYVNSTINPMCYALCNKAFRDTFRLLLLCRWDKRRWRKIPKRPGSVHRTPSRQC", "UniProt P28223, whole entry, looked up": "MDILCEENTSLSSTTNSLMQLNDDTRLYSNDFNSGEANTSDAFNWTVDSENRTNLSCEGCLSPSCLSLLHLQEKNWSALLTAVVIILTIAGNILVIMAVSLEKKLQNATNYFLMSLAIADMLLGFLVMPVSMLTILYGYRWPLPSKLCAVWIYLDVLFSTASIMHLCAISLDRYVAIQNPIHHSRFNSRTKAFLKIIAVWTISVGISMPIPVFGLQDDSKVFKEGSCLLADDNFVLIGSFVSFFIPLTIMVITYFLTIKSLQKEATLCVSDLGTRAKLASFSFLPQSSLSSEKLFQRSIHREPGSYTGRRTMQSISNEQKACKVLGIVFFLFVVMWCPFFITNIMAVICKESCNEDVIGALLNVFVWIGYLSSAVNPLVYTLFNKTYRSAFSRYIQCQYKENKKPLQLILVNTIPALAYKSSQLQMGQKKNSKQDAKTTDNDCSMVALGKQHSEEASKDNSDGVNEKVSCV", "UniProt P14416, whole entry, looked up": "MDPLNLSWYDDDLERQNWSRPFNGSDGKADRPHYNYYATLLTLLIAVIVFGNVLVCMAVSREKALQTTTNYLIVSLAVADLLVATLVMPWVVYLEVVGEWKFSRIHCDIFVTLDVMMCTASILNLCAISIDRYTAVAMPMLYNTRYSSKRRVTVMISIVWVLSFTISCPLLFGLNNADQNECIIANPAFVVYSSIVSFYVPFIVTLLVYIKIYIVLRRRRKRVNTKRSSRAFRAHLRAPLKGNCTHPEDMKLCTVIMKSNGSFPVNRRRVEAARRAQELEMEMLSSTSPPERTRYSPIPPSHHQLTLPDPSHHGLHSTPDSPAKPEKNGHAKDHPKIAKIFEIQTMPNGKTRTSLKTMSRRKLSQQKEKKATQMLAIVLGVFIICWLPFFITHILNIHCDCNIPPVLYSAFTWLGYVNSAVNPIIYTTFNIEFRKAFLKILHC"}, "source": "PubChem BioAssay (Tox21)", "key": {"[1]": {"experiment": "p53 small molecule agonists, cell-based qHTS assay: qHTS cell viability counter screen (AID 1963581); note: nearly all actives have a fitted effect of over 45% in size; note: potency is the fitted concentration of half-maximal effect", "method_in_brief": "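Luminescence from CellTiter-Glo, reflecting ATP content, serves as the cytotoxicity measure; it is taken after the 2 h reporter substrate step in HCT-116 p53RE-bla cells dosed for 16 h at 37 C.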"}, "[2]": {"biological_target": "Muscarinic acetylcholine receptor M1 (Homo sapiens) (UniProt P11229)", "experiment": "Cholinergic receptor muscarinic 1 (CHRM1) small molecule agonists, cell-based qHTS assay (AID 1963589); note: nearly all actives have a fitted effect of over 35% in size", "method_in_brief": "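Fluorescent calcium dye reports M1 activation in stably transfected CHO cells. Compounds, 15 concentrations, added after 1 h dye loading at 37 C; kinetic reading at 1 sec intervals.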"}, "[3]": {"experiment": "cAMP Responsive Elements (CRE) small molecule antagonists, cell-based qHTS assay (AID 1963591; active = well fitted inhibition curve with a large enough effect in the signal ratio in the repeat runs, not every such curve was filed as active; inconclusive = weak or mixed curves, or effect the other way; the % refers to the signal ratio; note: potency is the fitted concentration of half-maximal effect)", "conditions": "CRE-bla HEK293T, beta-lactamase FRET ratio; activity change, negative = inhibition: at 92.4 µM (top of the series) unless noted", "method_in_brief": "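Stimulation used NKH477 at a final 0.25 uM for 3 h in compound-treated CRE-bla HEK293T cells, seeded 18 h beforehand. Reporter activity was measured with LiveBLAzer B/G FRET substrate after 2 h at room temperature.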"}, "[4]": {"biological_target": "Beta-2 adrenergic receptor (Homo sapiens) (UniProt P07550)", "experiment": "Adrenergic beta2 receptor (ADRB2) small molecule agonists, cell-based qHTS assay (AID 1963593); note: potency is the fitted concentration of half-maximal effect;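 for activation: CHO cells stably overexpressing human ADRB2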", "conditions": "CHO-ADRB2 cells, cAMP HTRF, 30 min; activation: at 92.4 µM (top of the series) unless noted", "method_in_brief": "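CHO cells stably over-expressing ADRB2 were plated overnight at 37C, then dosed with compounds plus a stimulation mix containing 100uM IBMX and 25uM Ro-20-1724 for 0.5hr at room temperature. cAMP was measured by HTRF competition, 1hr.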"}, "[5]": {"biological_target": "Muscarinic acetylcholine receptor M1 (Homo sapiens) (UniProt P11229)", "experiment": "Cholinergic receptor muscarinic 1 (CHRM1) small molecule antagonists, cell-based qHTS assay (AID 1963588); note: nearly all actives have a fitted effect of over 40% in size; note: potency is the fitted concentration of half-maximal effect", "method_in_brief": "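Compounds were tested at 15 concentrations in three independent runs. Dye-loaded CHRM1-CHO cells were exposed 5 min at room temperature before stimulation by acetylcholine added at 50nM. Intracellular calcium was read kinetically on FDSS for 3 min.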"}, "[6]": {"experiment": "cAMP Responsive Elements (CRE) small molecule agonists, cell-based qHTS assay (AID 1963590); note: potency is the fitted concentration of half-maximal effect", "conditions": "CRE-bla HEK293T, beta-lactamase FRET ratio, 3 h; activation: at 92.4 µM (top of the series) unless noted", "method_in_brief": "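Compound exposure lasted 3 h at 37 C/5% CO2 in CRE-bla HEK 293T cells grown in assay medium with 10% dialyzed FBS and 25 mM HEPES. Reporter signal came from LiveBLAzer B/G FRET substrate, 2 h, room temperature.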"}, "[7]": {"biological_target": "Beta-2 adrenergic receptor (Homo sapiens) (UniProt P07550)", "experiment": "Adrenergic beta2 receptor (ADRB2) small molecule antagonists, cell-based qHTS assay (AID 1963592); note: nearly all actives have a fitted effect of over 50% in size", "conditions": "CHO-ADRB2 cells, isoproterenol-stimulated cAMP HTRF ratio, 0.5 h; activity change, negative = inhibition: at 92.4 µM (top of the series) unless noted", "method_in_brief": "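Assay format: CHO-ADRB2 cells, 18-20hr seeding at 37C/5% CO2, then compound plus 1nM isoproterenol agonist mix for 0.5hr RT. Homogeneous time-resolved fluorescence cAMP detection after 1hr, expressed as 665/615 nm ratio.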"}, "[8]": {"biological_target": "5-hydroxytryptamine receptor 2A (Homo sapiens) (UniProt P28223)", "experiment": "5-hydroxytryptamine receptor 2A (HTR2A) small molecule agonists, cell-based qHTS assay (AID 1963587); note: nearly all actives have a fitted effect of over 30% in size; note: potency is the fitted concentration of half-maximal effect", "method_in_brief": "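Kinetic calcium-flux fluorescence (2 min, 1 sec intervals) after compound addition in agonist mode. HTR2A-CHO cells were cultured 18 h, then dye-loaded 1 h at 37 C.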"}, "[9]": {"biological_target": "D(2) dopamine receptor (Homo sapiens) (UniProt P14416)", "experiment": "Dopamine D2 receptor (DRD2) small molecule antagonists, cell-based qHTS assay (AID 1963595; active = well fitted inhibition curve with a large enough effect in the signal ratio in the repeat runs, with a control signal flat; inconclusive = weak or mixed curves, or effect the other way; the % refers to the signal ratio)", "conditions": "HEK293-DRD2 cAMP HTRF antagonist mode; activity change, negative = inhibition: at 92.4 µM (top of the series) unless noted", "method_in_brief": "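HTRF cAMP read-out at 665 and 620 nm emission (340 nm excitation). Antagonist mode: compounds were tested against 12 nM quinpirole in DRD2-HEK293 cells, with 200 nM NKH477 raising cAMP and 0.1 mM Ro20-1724 blocking its breakdown.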"}, "[10]": {"biological_target": "D(2) dopamine receptor (Homo sapiens) (UniProt P14416)", "experiment": "Dopamine D2 receptor (DRD2) small molecule agonists, cell-based qHTS assay (AID 1963594); note: nearly all actives have a fitted effect of over 35% in size; note: potency is the fitted concentration of half-maximal effect", "conditions": "HEK293-DRD2 cAMP HTRF, agonist mode, 30 min; activation: at 92.4 µM (top of the series) unless noted", "method_in_brief": "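cAMP accumulation in DRD2-HEK293 cells measured by HTRF after 1 h detection; compounds added 10 min before NKH477 (200nM […]) forskolin-analogue stimulation, 30 min at room temperature, with Ro20-1724 present at 0.1 mM final.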"}}, "note": "“And” between values parts separate entries of the source, which are not always exact repeats. Equal values may be shown once. Inconclusive means that the source gave no clear call. Such entries were picked first, then a sample of the others. For some of these results: A potency beside an inconclusive call is a rough fit, not a confirmed value. The source made the active and inactive calls. Unless noted, calls come from the whole dose curve. % is set by controls: 0 for no effect and ±100 for the full control effect."}
{"smiles": "CC(C)c1ccc(S(=O)(=O)O)cc1", "values": [{"measurement": "Potency", "setting": "[1]", "value": "inconclusive: 45.8 µM [rising, single point]"}, {"measurement": "Potency", "setting": "[2]", "value": "inactive"}, {"measurement": "Potency", "setting": "[3]", "value": "inactive"}, {"measurement": "Potency", "setting": "[4]", "value": "inactive"}]}
{"smiles": "O=C(O)Cc1cn(-c2ccccc2)nc1-c1ccc(Cl)cc1", "values": [{"measurement": "Potency", "setting": "[1]", "value": "inconclusive: 11.2 µM [rising, single point]"}, {"measurement": "Potency", "setting": "[5]", "value": "inactive"}, {"measurement": "Potency", "setting": "[6]", "value": "inconclusive: 21.1 µM [rising, partial curve]"}, {"measurement": "activity change, negative = inhibition", "setting": "[3]", "value": "inconclusive: 9.49% [at 42.4 µM]"}, {"measurement": "Potency", "setting": "[7]", "value": "inactive"}]}
{"smiles": "CN1CCC(Nc2ncc3ncnc(Nc4ccc(F)c(Cl)c4)c3n2)CC1", "values": [{"measurement": "Potency", "setting": "[1]", "value": "inconclusive: 5 µM [cytotoxic, single point]"}, {"measurement": "Potency", "setting": "[5]", "value": "active: 8.18 µM"}, {"measurement": "Potency", "setting": "[6]", "value": "inconclusive: 13.3 µM [fluorescent, partial curve]"}, {"measurement": "activation", "setting": "[4]", "value": "inconclusive: -39.6% [at 42.5 µM]"}]}
{"smiles": "C[N+]12CCC(CC1)C(OC(=O)C(O)(c1ccccc1)c1ccccc1)C2", "note": "(configuration not stated)", "values": [{"measurement": "Potency", "setting": "[1]", "value": "inconclusive: 5 µM [cytotoxic, single point]"}, {"measurement": "Potency", "setting": "[5]", "value": "active: 0.0013 µM"}]}
{"smiles": "CC(C)N(c1ccccc1)C(C)C", "values": [{"measurement": "Potency", "setting": "[1]", "value": "inconclusive: 10.2 µM [cytotoxic, single point]"}, {"measurement": "Potency", "setting": "[8]", "value": "inactive"}, {"measurement": "Potency", "setting": "[4]", "value": "inconclusive: 68.6 µM [inhibitor, single point]"}]}
{"smiles": "NC(=O)c1c(Cl)cccc1Cl", "values": [{"measurement": "Potency", "setting": "[1]", "value": "inactive"}, {"measurement": "Potency", "setting": "[6]", "value": "inactive"}, {"measurement": "Potency", "setting": "[3]", "value": "inactive"}]}
{"smiles": "C#CC(O)CCCCC", "note": "(configuration not stated)", "values": [{"measurement": "Potency", "setting": "[1]", "value": "inconclusive: 16.4 µM [rising, partial curve, poor fit]"}, {"measurement": "Potency", "setting": "[5]", "value": "inactive"}, {"measurement": "Potency", "setting": "[4]", "value": "inactive"}]}
{"smiles": "O=C1c2ccccc2C(=O)c2cc(Cl)ccc21", "values": [{"measurement": "Potency", "setting": "[1]", "value": "inconclusive: 0.0447 µM [rising, single point]"}, {"measurement": "activity, negative = inhibition", "setting": "[5]", "value": "inactive: -8.9% [at 5.58 µM]"}, {"measurement": "activation", "setting": "[6]", "value": "inactive: -1.41% [at 8.39 µM]"}, {"measurement": "Potency", "setting": "[4]", "value": "inconclusive: 0.119 µM [inhibitor, partial curve, poor fit]"}]}
{"smiles": "CCCCCCCCOS(=O)(=O)O", "values": [{"measurement": "Potency", "setting": "[1]", "value": "inconclusive: 1.62 µM [cytotoxic, partial curve]"}, {"measurement": "Potency", "setting": "[5]", "value": "inactive"}, {"measurement": "activation", "setting": "[4]", "value": "inconclusive: -3.14%"}, {"measurement": "activity change, negative = inhibition", "setting": "[9]", "value": "inconclusive: 3.5%"}]}
{"smiles": "CO[Si](CCCNCCN)(OC)OC", "values": [{"measurement": "Potency", "setting": "[1]", "value": "inconclusive: 6.46 µM [rising, partial curve, poor fit]"}, {"measurement": "Potency", "setting": "[5]", "value": "inconclusive: 0.472 µM [inhibitor, full curve, poor fit]"}, {"measurement": "Potency", "setting": "[4]", "value": "inconclusive: 69.6 µM [inhibitor] and inactive"}]}
{"smiles": "CC[N+](CC)(CCNC(=O)C(=O)NCC[N+](CC)(CC)Cc1ccccc1Cl)Cc1ccccc1Cl", "values": [{"measurement": "Potency", "setting": "[1]", "value": "inactive"}, {"measurement": "Potency", "setting": "[5]", "value": "inconclusive: 2.59 µM [inhibitor, full curve, poor fit]"}, {"measurement": "Potency", "setting": "[7]", "value": "inactive"}, {"measurement": "Potency", "setting": "[4]", "value": "inconclusive: 26.6 µM [inhibitor, partial curve, poor fit]"}]}
{"smiles": "C#CCOC(=O)[C@@H](C)Oc1ccc(Oc2ncc(Cl)cc2F)cc1", "values": [{"measurement": "Potency", "setting": "[1]", "value": "inconclusive: 5.73 µM [rising, partial curve, poor fit]"}, {"measurement": "Potency", "setting": "[6]", "value": "inconclusive: 68.2 µM [rising, single point]"}]}
{"smiles": "COc1ccc(-n2nc(CCC(=O)N(C)O)cc2-c2ccc(Cl)cc2)cc1", "values": [{"measurement": "Potency", "setting": "[1]", "value": "inactive"}, {"measurement": "Potency", "setting": "[5]", "value": "inconclusive: 20.5 µM [inhibitor, partial curve, poor fit]"}, {"measurement": "activation", "setting": "[4]", "value": "inconclusive: -27% [at 42.5 µM]"}]}
{"smiles": "CCOC(=O)[C@H](CCc1ccccc1)N[C@@H](C)C(=O)N(CC(=O)O)C1Cc2ccccc2C1", "values": [{"measurement": "Potency", "setting": "[1]", "value": "inconclusive: 9.98 µM [cytotoxic, partial curve, poor fit]"}, {"measurement": "Potency", "setting": "[6]", "value": "inconclusive: 10.6 µM [rising, partial curve]"}, {"measurement": "Potency", "setting": "[3]", "value": "inconclusive: 23.7 µM [activator, partial curve]"}, {"measurement": "Potency", "setting": "[7]", "value": "inactive"}, {"measurement": "activation", "setting": "[4]", "value": "inconclusive: -34.6% [at 42.5 µM]"}, {"measurement": "Potency", "setting": "[10]", "value": "inactive"}]}
{"smiles": "N[C@@H](Cc1cc(I)c(O)c(I)c1)C(=O)O", "values": [{"measurement": "Potency", "setting": "[1]", "value": "inconclusive: 0.199 µM [cytotoxic, single point]"}, {"measurement": "Potency", "setting": "[8]", "value": "inconclusive: 26.8 µM [activator, partial curve, poor fit]"}, {"measurement": "activation", "setting": "[4]", "value": "inconclusive: -10.9% [at 42.5 µM]"}, {"measurement": "Potency", "setting": "[10]", "value": "inconclusive: 18.8 µM [rising, single point]"}]}
{"smiles": "COc1cc2nc(Cl)nc(N)c2cc1OC", "values": [{"measurement": "Potency", "setting": "[1]", "value": "inactive"}, {"measurement": "Potency", "setting": "[6]", "value": "inconclusive: 23.7 µM [rising, partial curve, poor fit]"}, {"measurement": "Potency", "setting": "[4]", "value": "inconclusive: 0.75 µM [inhibitor, single point]"}, {"measurement": "activation", "setting": "[10]", "value": "inconclusive: 24.4% [at 42.5 µM]"}]}
{"smiles": "OCCc1ccccn1", "values": [{"measurement": "Potency", "setting": "[1]", "value": "inactive"}, {"measurement": "Potency", "setting": "[6]", "value": "inactive"}, {"measurement": "activation", "setting": "[4]", "value": "inconclusive: 2.51%"}, {"measurement": "activity change, negative = inhibition", "setting": "[9]", "value": "inconclusive: 1.52%"}]}
{"smiles": "Cc1cc(CC(=O)O)n(C)c1C(=O)c1ccc(Cl)cc1", "values": [{"measurement": "Potency", "setting": "[1]", "value": "inconclusive: 51.3 µM [cytotoxic, single point]"}, {"measurement": "Potency", "setting": "[6]", "value": "inconclusive: 30.6 µM [rising, partial curve] and inconclusive: 26.6 µM [rising, partial curve]"}, {"measurement": "Potency", "setting": "[3]", "value": "inconclusive: 27.3 µM [fluorescent, partial curve] and inconclusive: 26.6 µM [fluorescent, partial curve]"}, {"measurement": "Potency", "setting": "[4]", "value": "inconclusive: 3.06 µM [inhibitor, full curve, poor fit] and inactive"}, {"measurement": "Potency", "setting": "[9]", "value": "inactive"}]}
